Measurements from PubChem BioAssay AID2417 (National Center for Advancing Translational Sciences (NCATS), 2010).
Among all 140,000 compounds or so, about 4,300 (3.1%) were called active. This list was built around the results that the source calls inconclusive (neither active nor inactive); the mix of calls is not that of the screen.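 How the source made its calls: active means readout at or below -70, meaning at least 70% loss of cells showing the perinucleolar compartment, a nuclear body marking cancer cells; inconclusive means readout between -30 and a set limit; inactive means the rest.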

experiment: High Content Assay for Compounds that inhibit the Assembly of the Perinucleolar Compartment; settings: PC3M PTB-GFP, PNC prevalence imaging, 16 h; at 10 µM; stronger effect = lower value;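 further: plate controls were DMSO wells for no effect and camptothecin positive control wells for full effect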
In short: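 Read-out is percentage of cells bearing a perinucleolar compartment, from automated 20x imaging of fixed, Hoechst-stained PC3M PTB-GFP cells. Cells were seeded 4 h, then exposed 16 h to compound (23 nl of library stock) in duplicate plates.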

| Compound | activity change (PNC), negative = inhibition |
| --- | --- |
| O=C(CSc1ccccc1)NCc1ccccn1 | inconclusive: -44% |
| COc1cccc(OC)c1C(=O)Nc1cc(C)on1 | inconclusive: -68.8% |
| O=C(CSc1ccccc1)N1CCc2ccccc21 | inconclusive: -43.8% |
| Cn1cccc1C(=O)NC(=O)COC(=O)c1ccccc1O | inactive: -3.5% |
| COc1ccc(CN(Cc2nc3ccccc3c(=O)[nH]2)C(=O)NC2CCCCC2)cc1 | inconclusive: -54.4% |
| O=C(CN1C(=O)CSc2ccccc21)Nc1ccc2c(c1)OCCO2 | inconclusive: -32.6% |
| Cc1ccc(C)c2sc(NC(=O)c3ccc(N4CCCCC4)c([N+](=O)[O-])c3)nc12 | inactive: 40.7% |
| CN(C)c1nc2ccc(OCCN3CCCCC3)cc2s1 | inactive: -26.3% |
| Cc1ccc(NC(=O)C(=O)NCc2ccc(/C=N/NC(=O)c3c(C)nc4ccccn34)o2)cc1 | inactive: 22.5% |
| C=CC[n+]1c(-c2ccc(C)cc2)csc1NNC(=O)Nc1ccccc1 | inconclusive: -50.9% |
| COc1ccc(CN(C(=O)c2cccs2)c2nccs2)cc1OC | inconclusive: -56.3% |
| Cc1cc(C(=O)NN=C2CCCCC2)c2ccccc2n1 | inconclusive: -64.1% |
| Cc1cnc(C(=O)OCC(=O)Nc2cccc(S(=O)(=O)N3CCCCC3)c2)cn1 | inconclusive: -68% |
| COc1ccccc1NC(=O)CCC(=O)Nc1nnc(C(F)(F)F)s1 | inactive: -3.05% |
| CCOc1ccc(CN(CCC#N)C(=S)NC(=O)c2ccccc2)cc1 | inactive: -12.5% |
| N#Cc1nc(-c2ccc(F)cc2)oc1NCCN1CCOCC1 | inconclusive: -30.9% |
| CCn1c(NC(=O)Nc2cccc(C)c2C)cc2sccc21 | inactive: 9.98% |
| COc1ccccc1-n1cnc2cc(C(=O)NCCCN3CCOCC3)ccc21 | inactive: 30.4% |
| CC1(C(=O)NC23CC4CC(CC(C4)C2)C3)CC1(Cl)Cl (configuration not stated) | inconclusive: -67.1% |
| COc1ccc(NC(=O)CSc2nnc(-c3cccnc3)n2Cc2ccco2)c(OC)c1 | inactive: 39.4% |
| Cc1ccc(NC2CCCCC2NS(=O)(=O)c2ccc(Cl)cc2)cc1 (configuration not stated) | inconclusive: -31.8% |
| COc1ccccc1OCC(=O)NNC(=O)c1cccs1 | inconclusive: -34.5% |
| COc1ccc(Nc2cc(=O)n(C3CCCCC3)c(=O)[nH]2)c(OC)c1 | inactive: 81.5% |
| Cc1ccc(S(=O)(=O)N(CC(O)CN2CCCC2)c2ccccc2)cc1 (configuration not stated) | inconclusive: -34.7% |

Exported in CSV form: 2 of the compounds above.
Compound,"activity change (PNC), negative = inhibition"
Cc1cc(C(=O)NN=C2CCCCC2)c2ccccc2n1,inconclusive: -64.1%
COc1ccccc1NC(=O)CCC(=O)Nc1nnc(C(F)(F)F)s1,inactive: -3.05%

(next part)

| Compound | activity change (PNC), negative = inhibition |
| --- | --- |
| O=C(CSc1nnc(Cc2ccccc2)o1)NC1CC2CCC1C2 (configuration not stated) | inconclusive: -30.4% |
| Clc1ccc(Cn2nnc(-c3ccccc3)n2)cc1 | active: -100% |
| S=C(Nc1ccc(Br)cc1)N1CCCC1 | inconclusive: -30.9% |
| [O-][n+]1c2ccc3nonc3c2nn1-c1ccccc1Cl | inactive: 25.6% |
| O=C(NN=C1CCC(c2ccccc2)CC1)c1cc2c(s1)CCCC2 (configuration not stated) | inactive: -5.88% |
| CCCSc1cc(N2CCN(C)CC2)nc(-c2ccc(OC)cc2)n1 | active: -80.5% |
| CN(C)CC(C)(C)CNS(=O)(=O)c1cccc(Cl)c1Cl | inactive: 0.802% |
| CC(C)(C)C(=O)Nc1ccccc1C(=O)OCC(=O)c1ccc2c(c1)OCCO2 | inconclusive: -39.5% |
| CCOc1ccccc1C1C(C#N)=C(SCC(=O)OC)NC(=O)C1C(=O)OC (configuration not stated) | inconclusive: -40.7% |
| C=C(C)Cn1c(SCCN2CCOCC2)nc2c1c(=O)[nH]c(=O)n2C | inconclusive: -41.6% |
| CN(C)CCNC(=S)Nc1ccccc1Cl | inconclusive: -30.8% |
| CCNC(=O)CN(c1ccc(CC)cc1)S(C)(=O)=O | inconclusive: -41.9% |
| CN(C(=O)COC(=O)c1ccc2c(=O)n3c(nc2c1)CCC3)c1ccccc1 | inactive: 2.21% |
| Cc1nn(-c2ccccc2)c(N2CCCC2)c1/C=N/NC(=O)c1ccccc1O | active: -104% |
| O=C(c1cccs1)c1coc2ccc(O)c(CN(CCO)CCO)c12 | inconclusive: -44.1% |
| O=C(NCCCc1ccccc1)C1CC(=O)N(c2ccc3c(c2)OCCO3)C1 (configuration not stated) | inconclusive: -48.8% |
| CS(=O)(=O)Nc1ccc(C(=O)NCC2CCCO2)cc1 (configuration not stated) | inactive: -24.5% |
| O=C(O)/C=C/C(=O)NC1CCCCC1 | inconclusive: -48.9% |
| COc1ccccc1NC(=S)NC(=O)CC(C)C | inactive: 95.8% |
| O=C(O)c1c(F)c(F)c(F)c(F)c1-c1ccc(Cl)cc1 | inactive: 41.3% |
| CCOC(=O)N1CCC(c2cc(=O)n3[nH]c(-c4ccccc4)cc3n2)CC1 | inactive: -5.16% |
| CCCCNC(=O)CCSc1nc2nc(C)cc(C)n2n1 | inconclusive: -38% |
| O=C(N/N=C/c1cccs1)C1COc2ccccc2O1 (configuration not stated) | inconclusive: -35.4% |
